Drawing on article PMC6348303, this text covers binding for 2 molecules.

Chains of the proteins cited; added tags and fusions are not shown. Residues count along the entry.
UniProt Q99805, residues 29-663: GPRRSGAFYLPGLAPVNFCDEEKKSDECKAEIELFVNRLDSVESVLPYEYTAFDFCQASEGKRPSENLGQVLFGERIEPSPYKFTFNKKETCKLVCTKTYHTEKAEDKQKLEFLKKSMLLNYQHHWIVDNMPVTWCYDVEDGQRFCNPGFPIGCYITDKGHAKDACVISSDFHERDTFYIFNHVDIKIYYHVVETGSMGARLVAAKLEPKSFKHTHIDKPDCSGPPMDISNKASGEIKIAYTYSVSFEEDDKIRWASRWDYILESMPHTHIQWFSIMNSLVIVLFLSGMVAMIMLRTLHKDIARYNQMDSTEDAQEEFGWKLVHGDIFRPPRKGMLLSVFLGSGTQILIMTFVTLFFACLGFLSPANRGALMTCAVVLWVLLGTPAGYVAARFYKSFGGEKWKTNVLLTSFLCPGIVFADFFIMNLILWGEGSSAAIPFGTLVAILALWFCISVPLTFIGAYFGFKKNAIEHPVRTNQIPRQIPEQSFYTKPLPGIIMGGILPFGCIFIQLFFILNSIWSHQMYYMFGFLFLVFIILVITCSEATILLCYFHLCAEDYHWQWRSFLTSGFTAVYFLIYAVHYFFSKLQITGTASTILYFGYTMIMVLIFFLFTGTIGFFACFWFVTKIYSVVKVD

The target in assay [1] is T1, Gb3S-NG (Gb3 synthase with moxNeonGreen fused to its C-terminus) (human) (UniProt Q9NPC4).
T1 sequence: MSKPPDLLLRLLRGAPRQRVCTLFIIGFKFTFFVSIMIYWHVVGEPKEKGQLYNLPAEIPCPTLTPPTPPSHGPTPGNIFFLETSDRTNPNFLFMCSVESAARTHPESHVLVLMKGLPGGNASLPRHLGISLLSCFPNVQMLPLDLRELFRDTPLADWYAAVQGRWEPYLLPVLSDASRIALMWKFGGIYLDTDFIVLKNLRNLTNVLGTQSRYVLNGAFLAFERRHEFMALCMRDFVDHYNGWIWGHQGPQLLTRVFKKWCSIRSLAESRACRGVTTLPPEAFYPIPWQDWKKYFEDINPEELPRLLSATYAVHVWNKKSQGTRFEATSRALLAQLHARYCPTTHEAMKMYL
Description: co-IP; spHA-TM9SF2 transfected into several GT-NG-expressing cell lines; immunoprecipitation (Figure S6E).

Assay [2] concerns the target spHA-TM9SF2 (transmembrane 9 superfamily 2 with an HA-tag inserted following the putative signal peptide) (UniProt Q99805). Description: co-IP; immunoprecipitation with anti-HA agarose beads of spHA-TM9SF2, spHA-TM9SF2 CΔ3 or GRINA TM4-6-HA; Gb3 synthase detected (Figure S6D).

No constants are given. Whether binding was seen depends on the method and setting. Binding seen in cells or lysates may run through a third protein. Some entries that bind do so weakly or less than the wild type. For some assays here: Tags and fused reporters may be left off the sequences shown.

Consider “spHA-TM9SF2 (transmembrane 9 superfamily 2 with an HA-tag inserted following the putative signal peptide) (from UniProt Q99805 29-663)”, for which, in assay [1], the binding result is reported as “binds”.

B1: Gb3 synthase (α1,4 galactosyltransferase) (enzyme, UniProt Q9NPC4 1-353)
chain: T1 sequence
As for B1, the binding entry in assay [2] is reported as “binds”.
